Reference: PubChem BioAssay AID493246 (Drosophila RNAi Screening Center, 2011)
In all, the deposit lists about 21,000 reagents; this is an unselected part of those with a known target gene and a result. Over the whole deposit, 429 (2%) were called active. 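Values are raw and not normalised between plates; calls rest on per-plate z-scores that were not deposited.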 Entries without a mark were called inactive. No sequences are given here. Not given: the amount of reagent, the time to read-out.

Test: 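Genome-wide search for dsRNAs that reduce cell number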 (primary screen)
Cell system: Drosophila Kc and S2R+ cells
Knock-down reagent: long dsRNA against Drosophila genes
Measured: 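Cell number per well after knock-down, printed as raw plate values; calls were based on per-plate z-scores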
Scale: Kc cell number and S2R+ cell number: higher = more cells remaining
Active means: 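Counted as a hit if cell number falls by a z-score of at least 3 within its plate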

gene knocked down | DRSC id | Kc cell number, rep 1 | Kc cell number, rep 2 | S2R+ cell number, rep 1 | S2R+ cell number, rep 2
Dhc62B | DRSC08655 | 1.38e6 | 1.19e6 | 1.12e6 | 1.28e6
barc | DRSC11792 | 1.30e6 | 1.37e6 | 1.25e6 | 1.31e6
Osi5 | DRSC12276 | 1.56e6 | 1.52e6 | 1.34e6 | 1.53e6
CG5906 | DRSC10557 | 1.43e6 | 1.35e6 | 1.22e6 | 1.38e6
CG10510 | DRSC11614 | 1.25e6 | 1.48e6 | 1.26e6 | 1.38e6
Grl62c | DRSC07964 | 1.51e6 | 1.45e6 | 1.01e6 | 1.20e6
Cp7Fc | DRSC18035 | 1.53e6 | 1.49e6 | 1.04e6 | 1.19e6
IFT54 | DRSC15469 | 1.46e6 | 1.45e6 | 1.03e6 | 1.18e6
tow | DRSC10192 | 9.33e5 (active) | 1.02e6 | 5.30e5 | 6.58e5
tub | DRSC12389 | 1.64e6 | 1.84e6 | 9.73e5 | 1.19e6
RpS19b | DRSC15773 | 1.56e6 | 1.65e6 | 9.30e5 | 1.03e6
Ran | DRSC20364 | 1.44e6 | 1.43e6 | 6.86e5 | 8.12e5
Dref | DRSC03319 | 1.33e6 | 1.41e6 | 1.13e6 | 1.24e6
CG31249 | DRSC16248 | 1.47e6 | 1.33e6 | 9.56e5 | 1.06e6
CG30116 | DRSC05935 | 1.46e6 | 1.45e6 | 1.29e6 | 1.33e6
CG30116 | DRSC06685 | 1.63e6 | 1.60e6 | 1.29e6 | 1.40e6
Mur2B | DRSC18545 | 1.73e6 | 1.78e6 | 1.05e6 | 1.19e6
Mur2B | DRSC18546 | 1.53e6 | 1.60e6 | 1.02e6 | 1.13e6
Syb | DRSC07559 | 1.57e6 | 1.58e6 | 9.33e5 | 9.97e5
BCL7-like | DRSC17729 | 5.77e5 | – | 8.52e5 | –
Grx1 | DRSC10727 | 1.77e6 | 1.89e6 | 1.30e6 | 1.42e6
xmas-1 (retired record) | DRSC20386 | 1.56e6 | 1.59e6 | 1.09e6 | 1.24e6
CG3557 | DRSC00614 | 1.38e6 | 1.37e6 | 1.05e6 | 1.00e6
Tep4 | DRSC03453 | 1.74e6 | 1.73e6 | 1.33e6 | 3.47e5
CG32544 | DRSC20033 | 1.58e6 | 1.57e6 | 1.06e6 | 1.18e6
CG13895 | DRSC08365 | 1.23e6 | 1.46e6 | 1.14e6 | 1.22e6
PH4alphaEFB | DRSC14473 | 5.95e5 | – | 8.46e5 | –
PH4alphaEFB | DRSC14950 | 1.50e6 | 1.48e6 | 9.69e5 | 1.09e6
CG4598 | DRSC02763 | 1.61e6 | 1.66e6 | 1.24e6 | 1.46e6
fz4 | DRSC18780 | 1.55e6 | 1.52e6 | 1.05e6 | 1.16e6
CG17930 | DRSC15292 | 1.49e6 | 1.62e6 | 1.13e6 | 1.21e6
CG12020 | DRSC08226 | 1.36e6 | 1.38e6 | 1.10e6 | 1.23e6
Gpdh1 | DRSC03336 | 1.26e6 | 1.36e6 | 7.24e5 | 8.37e5
CG2126 | DRSC15418 | 1.58e6 | 1.61e6 | 1.05e6 | 1.21e6
CG13700 | DRSC10049 | 1.40e6 | 1.53e6 | 1.30e6 | 1.41e6
bgm | DRSC03495 | 1.04e6 | 1.18e6 | 8.99e5 | 9.36e5
CG42694 | DRSC03955 | 5.34e5 | – | 8.17e5 | –
udd | DRSC06720 | 1.88e6 | 1.88e6 | 1.43e6 | 1.60e6
por | DRSC20362 | 1.61e6 | 1.64e6 | 1.18e6 | 1.30e6
CG11286 | DRSC14293 | 1.42e6 | 1.49e6 | 1.29e6 | 1.40e6
IntS9 | DRSC10493 | 1.53e6 | 1.58e6 | 1.24e6 | 1.27e6
CecB | DRSC16605 | 1.64e6 | 1.60e6 | 1.03e6 | 1.13e6
CG8230 | DRSC05931 | 1.49e6 | 1.56e6 | 1.14e6 | 1.26e6
Nha1 | DRSC02109 | 1.38e6 | 1.48e6 | 5.11e5 | 2.54e5
CG30471 | DRSC07096 | 1.38e6 | 1.41e6 | 1.12e6 | 1.13e6
CG9727 | DRSC12585 | 1.63e6 | 1.65e6 | 1.28e6 | 1.37e6
CG5715 | DRSC15860 | 1.38e6 | 1.46e6 | 9.86e5 | 1.06e6
CG17249 | DRSC08517 | 1.31e6 | 1.35e6 | 1.14e6 | 1.18e6
Vha100-2 | DRSC14152 | 1.58e6 | 1.65e6 | 1.30e6 | 1.36e6
CR31822 | DRSC01510 | 1.47e6 | 1.53e6 | 9.36e5 | 1.15e6
CG7548 | DRSC10874 | 1.25e6 | 1.17e6 | 1.17e6 | 1.17e6
ple | DRSC11383 | 1.55e6 | 1.54e6 | 7.94e5 | 9.11e5
CG10752 | DRSC09799 | 1.07e6 | 1.25e6 | 1.22e6 | 1.06e6
not | DRSC11378 | 1.35e6 | 1.39e6 | 1.28e6 | 1.36e6
Tsp26A | DRSC03135 | 1.58e6 | 1.51e6 | 1.26e6 | 1.43e6
CG3225 | DRSC00578 | 1.22e6 | 1.31e6 | 7.40e5 | 7.32e5
Sclp | DRSC19851 | 6.00e5 | – | 9.14e5 | –
RtcB | DRSC03280 | 1.56e6 | 1.66e6 | 1.37e6 | 4.18e5
DnaJ-H | DRSC03273 | 1.65e6 | 1.71e6 | 1.38e6 | 1.53e6

Records listed so far with an active call, once more:
gene knocked down | DRSC id | Kc cell number, rep 1 | Kc cell number, rep 2 | S2R+ cell number, rep 1 | S2R+ cell number, rep 2
tow | DRSC10192 | 9.33e5 (active) | 1.02e6 | 5.30e5 | 6.58e5
